Results reported in publication doi:10.1101/2020.12.25.417865.

Sequences of proteins named here, by UniProt entry; tags and fusion partners are left off. Residues count along the entry.
UniProt P38932: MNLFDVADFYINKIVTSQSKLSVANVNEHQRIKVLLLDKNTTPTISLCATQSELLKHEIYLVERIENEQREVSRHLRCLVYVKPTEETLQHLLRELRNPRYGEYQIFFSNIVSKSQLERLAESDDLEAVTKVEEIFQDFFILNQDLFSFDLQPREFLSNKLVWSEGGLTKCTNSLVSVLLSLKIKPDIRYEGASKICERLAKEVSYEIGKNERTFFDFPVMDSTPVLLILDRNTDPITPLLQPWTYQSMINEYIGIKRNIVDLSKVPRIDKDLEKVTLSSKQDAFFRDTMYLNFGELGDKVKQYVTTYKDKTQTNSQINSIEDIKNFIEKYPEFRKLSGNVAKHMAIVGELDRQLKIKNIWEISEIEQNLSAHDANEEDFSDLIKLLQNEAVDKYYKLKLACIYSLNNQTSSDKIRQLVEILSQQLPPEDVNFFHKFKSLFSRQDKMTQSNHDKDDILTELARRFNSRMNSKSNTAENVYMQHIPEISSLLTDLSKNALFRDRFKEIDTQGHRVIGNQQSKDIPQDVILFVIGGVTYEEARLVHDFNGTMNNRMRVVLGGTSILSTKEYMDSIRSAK
UniProt P32319, residues 22-1579: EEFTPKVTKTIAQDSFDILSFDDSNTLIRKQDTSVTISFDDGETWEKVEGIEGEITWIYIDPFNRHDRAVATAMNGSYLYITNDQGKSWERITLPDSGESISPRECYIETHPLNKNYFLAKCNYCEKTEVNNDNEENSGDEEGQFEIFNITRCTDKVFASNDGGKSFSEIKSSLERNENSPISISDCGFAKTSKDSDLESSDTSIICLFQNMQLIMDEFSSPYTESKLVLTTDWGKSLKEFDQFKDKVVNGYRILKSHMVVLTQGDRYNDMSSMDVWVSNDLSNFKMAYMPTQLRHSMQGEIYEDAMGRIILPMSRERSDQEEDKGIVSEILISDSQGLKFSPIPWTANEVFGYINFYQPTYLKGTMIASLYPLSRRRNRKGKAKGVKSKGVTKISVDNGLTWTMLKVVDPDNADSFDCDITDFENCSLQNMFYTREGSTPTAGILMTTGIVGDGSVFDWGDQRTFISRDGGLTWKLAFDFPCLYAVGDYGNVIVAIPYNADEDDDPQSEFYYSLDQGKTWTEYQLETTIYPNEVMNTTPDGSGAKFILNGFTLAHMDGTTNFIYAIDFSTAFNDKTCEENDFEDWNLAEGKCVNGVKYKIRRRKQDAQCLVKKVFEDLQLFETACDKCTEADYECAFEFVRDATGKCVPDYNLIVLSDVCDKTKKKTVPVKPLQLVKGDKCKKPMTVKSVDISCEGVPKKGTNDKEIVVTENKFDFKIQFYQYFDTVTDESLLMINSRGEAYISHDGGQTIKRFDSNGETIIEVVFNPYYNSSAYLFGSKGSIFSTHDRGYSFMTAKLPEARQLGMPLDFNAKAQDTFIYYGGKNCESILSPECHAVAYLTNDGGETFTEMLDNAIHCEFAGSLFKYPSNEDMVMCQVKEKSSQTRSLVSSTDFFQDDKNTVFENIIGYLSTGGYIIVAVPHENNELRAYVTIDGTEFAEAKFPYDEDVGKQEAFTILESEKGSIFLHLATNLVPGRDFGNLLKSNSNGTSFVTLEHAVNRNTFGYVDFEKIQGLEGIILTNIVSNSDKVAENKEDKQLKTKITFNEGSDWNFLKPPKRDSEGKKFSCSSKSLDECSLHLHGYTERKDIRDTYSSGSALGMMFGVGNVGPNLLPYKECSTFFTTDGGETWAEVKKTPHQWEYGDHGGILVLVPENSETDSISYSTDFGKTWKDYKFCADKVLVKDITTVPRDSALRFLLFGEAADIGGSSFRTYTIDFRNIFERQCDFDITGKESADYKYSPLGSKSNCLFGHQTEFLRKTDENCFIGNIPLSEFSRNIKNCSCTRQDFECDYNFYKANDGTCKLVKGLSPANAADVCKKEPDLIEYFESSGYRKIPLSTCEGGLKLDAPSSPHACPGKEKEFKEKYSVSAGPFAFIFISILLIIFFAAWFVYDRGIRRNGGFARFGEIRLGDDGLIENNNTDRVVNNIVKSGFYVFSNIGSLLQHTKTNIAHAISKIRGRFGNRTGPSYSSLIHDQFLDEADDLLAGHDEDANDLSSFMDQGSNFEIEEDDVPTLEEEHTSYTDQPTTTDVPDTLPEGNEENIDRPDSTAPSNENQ
UniProt Q04338: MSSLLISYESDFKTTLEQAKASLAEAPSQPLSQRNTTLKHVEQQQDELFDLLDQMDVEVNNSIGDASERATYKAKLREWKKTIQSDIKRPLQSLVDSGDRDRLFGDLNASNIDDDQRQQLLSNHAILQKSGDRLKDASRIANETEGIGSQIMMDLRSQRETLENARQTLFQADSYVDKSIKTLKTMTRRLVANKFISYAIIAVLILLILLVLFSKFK

T1: Drs2-GFP (S. cerevisiae) (UniProt P39524)
T1 sequence: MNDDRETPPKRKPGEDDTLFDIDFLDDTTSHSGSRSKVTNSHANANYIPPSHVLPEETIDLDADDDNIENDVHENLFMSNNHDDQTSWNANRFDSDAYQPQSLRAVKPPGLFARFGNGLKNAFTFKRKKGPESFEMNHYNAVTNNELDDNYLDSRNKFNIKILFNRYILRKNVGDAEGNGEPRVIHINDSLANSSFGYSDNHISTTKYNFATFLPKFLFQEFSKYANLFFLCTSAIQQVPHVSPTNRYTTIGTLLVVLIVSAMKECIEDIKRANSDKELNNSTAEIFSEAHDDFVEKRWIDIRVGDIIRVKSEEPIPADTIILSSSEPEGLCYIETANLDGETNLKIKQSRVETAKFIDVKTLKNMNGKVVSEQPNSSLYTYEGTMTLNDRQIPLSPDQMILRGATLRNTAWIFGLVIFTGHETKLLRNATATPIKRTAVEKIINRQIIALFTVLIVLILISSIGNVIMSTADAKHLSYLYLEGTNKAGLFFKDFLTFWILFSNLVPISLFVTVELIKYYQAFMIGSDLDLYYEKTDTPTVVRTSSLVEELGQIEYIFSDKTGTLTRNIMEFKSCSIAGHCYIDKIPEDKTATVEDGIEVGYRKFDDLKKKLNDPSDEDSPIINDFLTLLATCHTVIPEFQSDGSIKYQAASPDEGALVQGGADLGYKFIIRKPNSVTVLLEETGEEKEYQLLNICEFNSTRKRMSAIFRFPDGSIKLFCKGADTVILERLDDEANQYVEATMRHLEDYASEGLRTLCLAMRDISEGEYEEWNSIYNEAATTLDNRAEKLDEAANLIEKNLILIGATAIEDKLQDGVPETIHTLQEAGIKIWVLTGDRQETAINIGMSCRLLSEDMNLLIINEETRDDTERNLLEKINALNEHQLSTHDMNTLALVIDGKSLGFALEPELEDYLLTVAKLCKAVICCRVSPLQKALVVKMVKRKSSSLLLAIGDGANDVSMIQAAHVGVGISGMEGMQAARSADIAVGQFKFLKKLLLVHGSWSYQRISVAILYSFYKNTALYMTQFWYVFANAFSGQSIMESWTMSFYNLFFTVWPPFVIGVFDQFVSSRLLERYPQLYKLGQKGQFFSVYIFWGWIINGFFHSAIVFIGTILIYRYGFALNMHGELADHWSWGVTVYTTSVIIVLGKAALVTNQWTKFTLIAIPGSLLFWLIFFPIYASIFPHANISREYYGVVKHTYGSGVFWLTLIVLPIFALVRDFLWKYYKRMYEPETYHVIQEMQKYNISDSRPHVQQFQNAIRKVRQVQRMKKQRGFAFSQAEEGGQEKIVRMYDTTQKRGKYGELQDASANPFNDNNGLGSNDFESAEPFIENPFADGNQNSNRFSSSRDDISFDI


Experiments:
Drs2-GFP (S. cerevisiae) [1] = biological target: T1, Drs2-GFP (S. cerevisiae); assay: cross-linking + affinity purification with mass spectrometry
Drs2-GFP (S. cerevisiae) [2] = biological target: T1, Drs2-GFP (S. cerevisiae); assay: as above; remark: listed apart in the source

Row | Molecule | binding (Drs2-GFP (S. cerevisiae) [1]) | binding (Drs2-GFP (S. cerevisiae) [2])
1 | Vps45 (from UniProt P38932 1-577) | binds | –
2 | Pep1 (from UniProt P32319 22-1579) | binds | –
3 | Vti1 (from UniProt Q04338 1-217) | binds | –
4 | Rcy1 (protein, UniProt P39531 1-840) MDDLLKVPEIVTNIASYLSTVDYLSFQQVNKRVYAIINGKNDSKYWSLKLTRMGLQQVHSNEEEEITLLDENDNQNSLRIFEIYKSFTAQNSKKIFVKFYRCYNSYARKLYNNNLANFFPTSYSNDPLKQTRILNFIKKYNFSNKNDIETFTRIETNFNILREIFINSVLKESELNYQSNNLAAVARFMKILLISNEESNAIEFFKSKADLPPSLTVLPSNDELFWAEQPREEDSGGSTVIFNSKNLDTFLNQLRDFLNEKIKLADILFKDEFPVILQFIESFIQDILLDILNNILLSYSEFLKENGKDSKANYECVPELYFTFIKKFDTELNDSVNAGANFRKVVRDLLNLYLEPFVVNYMNQTTRVFESLINSQLANYDTQVQDKQREQNAKIYNTLKDQTDASSASNNELPNDLSIITETSKTVPEADSKPSTIHQSVHSTDISNDKLDFLSSFTKIFKFSNNENQRLKQQLQLAYNLNLISNNLQNIKSLISLDLCYKILQETSEKTDQIYKFHTIESLLPLIKLRCQEIFKILITQLNKNHVKPAFEKAILLLQKYNPNEIEQIEIKFNSLSPANTQVEPLVQFTELINIGDIILQMISIFYKNELIPKKIIDKNKDFLNDVIQLKKNFETSIDDFVAEGLNIGINKLMDEISFVFKTLQLPDDYNPPPPSRNSPIRDIKPTKCAIRVVELLSNHCFLLTGATDKGTIDVYQQEIGERFFNEIVKHLKKCFISTEGAIWLICDLNYFYDFIANKLKQKNVVPYFVGLKSIGQLYIISGKDSKELGKLISDLGKFNGIFTQEEIYEFVQRRSDWVRVRKDVEKVMYGLGIRDCCIM | – | binds
5 | Vps17 (protein, UniProt P32913 1-551) MTSAVPYDPYDDLDNNPFAEPQEEDSEPAATTTDGSSSMSEERVGTEQTAASVQDNGTANNIQNGLGEEGNATRSKTSNEHNENQQPSQPSERVILPERSDEKKKYTLLAKVTGLERFGSATGKKENPTIIFDCSTNLPTFRKQQYKNVKKSYEEFHQLFKYLNVAIQESFVPTLPSAYTTFGINSEEDRMKVTRNFQLWFNRLSQDPLIIRNEEVAFFIESDFNTYTPINKSKSLASGLKRKTLKQLAPPYDEITELAEFRPLVKSIYVVSQSLQEKLLRVSRNRKMMVQEENAFGQDFVNLDEHNKLYRRYGKILTAVGDIDSIIATMDMATLYDGLEWIVRDAYAVKEALTNRHFIMRNLVQAQQNSKAKQEQARRFRSRRDINPMKIDEALRQLKAAAKNEQVLTLKLQRITSNMIIERKQWISWYEEWIRSSIKEFTLRKIEYERKKLTLLERVRSDIRKADENGGLSRLGRHAVSNNNSDTSQTLKGDSWTGESNRKSQIPINKIAHTEFDDELFTEDDGYNSQDSDTTSLNARHAASLLGMSTK | – | binds
6 | Akr1 (protein, UniProt P39010 1-764) MVNELENVPRASTLTNEEQTVDPSNNDSQEDISLGDSNEITSLASLKAIRSGNEEESGNEQVNHNDEAEEDPLLTRYHTACQRGDLATVKEMIHGKLLEVNNDGDSTEHITGLHWASINNRLSVVDFLVSQGADVNARAGALHATPLHWAARYGYVYIVDFLLKHGADPTMTDDQGFNLLHLSVNSSNIMLVLYVLFNVVSKGLLDIDCRDPKGRTSLLWAAYQGDSLTVAELLKFGASIKIADTEGFTPLHWGTVKGQPHVLKYLIQDGADFFQKTDTGKDCFAIAQEMNTVYSLREALTHSGFDYHGYPIKKWFKKSQHAKLVTFITPFLFLGIAFALFSHINPLFVIIVLFLLAIATNKGLNKFVLPSYGRMGVHNVTLLRSPLLSGVFFGTLLWVTIVWFFKVMPRTFSDEQYTNILMLVILVSVFYLFGQLVIMDPGCLPEETDHENVRQTISNLLEIGKFDTKNFCIETWIRKPLRSKFSPLNNAVVARFDHYCPWIFNDVGLKNHKAFIFFITLMESGIFTFLALCLEYFDELEDAHEDTSQKNGKCFILGASDLCSGLIYDRFVFLILLWALLQSIWVASLIFVQAFQICKGMTNTEFNVLMKESKSIGPDGLSFNENFNTTPEGFAPSIDPGEESNDTVLAPVPGSTIRKPRTCFGVCYAVTGMDQWLAVIKETIGIKDSTGHNVYSITSRIPTNYGWKRNVKDFWLTSDINAPLWRRILYPPSGSKALLNGIEVDYFKLYKLPNKDVEQGNDMV | – | binds

Where two headings read alike, the source gives them in different places. Results are given in words; binding and its absence hold for the method and conditions named. Binding seen in cells or lysates may run through a third protein. These calls come from enrichment with a bait or labelling near it, and not all partners need be listed. Sequences can lack the tags named with a protein.
